Results published in patent publication US20050261297A1, “Nitrogen-containing heterocyclic compound” (YAMANOUCHI PHARMACEUTICAL CO., LTD, priority 2002, published 2005).
Some results were stated once for a whole list of compounds, not compound by compound.

System: mouse osteoblast cell line MC3T3-E1
Assay: Alkaline phosphatase (ALP) activity measurement in mouse osteoblast cell line
Assay type: cell-based
Settings: at 300 nM; 3 days incubation; compared with the control group regarded as 100%

SMILES | ALP activity [%]
COc1cccc(-c2nnc3ccc(N4CCCCCCC4)nn23)n1 [Example 8, 6-azocan-1-yl-3-(6-methoxypyridin-2-yl)-1,2,4-triazolo[4,3-b]pyridazine] | ≥ 300
Brc1cccc(-c2nnc3ccc(N4CCCCCC4)nn23)n1 [Example 12, 6-azepan-1-yl-3-(6-bromopyridin-2-yl)-1,2,4-triazolo[4,3-b]pyridazine] | ≥ 300
